{
  "source": "the supplement of paper PMC8728848",
  "binders": {"B1": {"name": "FimA (Actinomyces oris) (protein)", "chain": "MHHHHHHSSGVDLGTENLYFQSNAETPNYGNIKTDATGSLVIHKHLTGGGKDIGTPTGTAQNADDKGPAVEGVVFTAYPITDINLKDPAGWDTISNLSRTGVPDSACANPAAPTLGAHQFGTPKVSPATTKEGLATITEMPVQAYLVCETTTPGDIVQKAKPFVVTIPHPNTAAGADGQWIYDVNVYPKNEAIDVDKTIQAQKLNGYGVGSLIKFPVESTAPTLDAKSFYKYFQLKDTLDERLSEVTATDVSLEGTPLQPTDYKVETKQQTVTVTFTAEGLKKIKAAPGKKVSAVFQGKVTKAGNGAITNRAQVISDTLYAEQPPTPETPPTDPENPPTSDEVISRWGDLSIKKVDTHQQGQTKAGLQGAQFQLYKAKNAYANTCSNEKEGAPIAINGQTTLTTDAQGAIDIKGLFISDSIDGADRDNQVNAMERCYVLVETKAPAGYVLPAGNGAATPVKVKAGEETTDNVTVENTKQSVPGLPLTG"}},
  "test_in_all_cases": "glycan array binding signal (z-score within array); higher = stronger binding",
  "details_in_all_cases": "glycan notation: IUPAC condensed, linker removed",
  "key": {"[1]": {"target": "GalNAc(b1-3)Gal", "summary_of_the_method": "(§1)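 Arrays were curated from the Consortium for Functional Glycomics database, 3228 in total, and kept only where the protein sequence was available. Binding is expressed as a within-array Z-score. This score was averaged across arrays of the same protein sequence at different concentrations or buffers and across linkers, and negative values can be read as non-binding.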"}, "[2]": {"target": "GalNAc(b1-3)Gal(a1-4)Gal(b1-4)GlcNAc", "summary_of_the_method": "as §1"}, "[3]": {"target": "GalNAc(b1-3)Gal(a1-4)Gal(b1-4)GlcNAc(b1-3)Gal(b1-4)Glc", "summary_of_the_method": "as §1"}, "[4]": {"target": "GalNAc(b1-3)Gal(a1-6)Gal(b1-4)Glc", "summary_of_the_method": "as §1"}, "[5]": {"target": "GalNAc(b1-3)GalNAc", "summary_of_the_method": "as §1"}, "[6]": {"target": "GalNAc(b1-3)GlcNAc", "summary_of_the_method": "as §1"}, "[7]": {"target": "GalNAc(b1-4)Gal(b1-4)Glc", "summary_of_the_method": "as §1"}, "[8]": {"target": "GalNAc(b1-4)GlcNAc", "summary_of_the_method": "as §1"}, "[9]": {"target": "GalNAc(b1-4)GlcNAc(b1-2)Man", "summary_of_the_method": "as §1"}, "[10]": {"target": "GalNAc(b1-4)GlcNAc(b1-2)Man(a1-3)[GalNAc(b1-4)GlcNAc(b1-2)Man(a1-6)]Man(b1-4)GlcNAc(b1-4)GlcNAc", "summary_of_the_method": "as §1"}, "[11]": {"target": "GalNAc(b1-4)GlcNAc(b1-3)GalNAc(b1-4)GlcNAc", "summary_of_the_method": "as §1"}, "[12]": {"target": "GalNAc(b1-4)GlcNAc6S", "summary_of_the_method": "as §1"}, "[13]": {"target": "GalNAc(b1-6)GalNAc", "summary_of_the_method": "as §1"}, "[14]": {"target": "GalNAc3S(b1-4)GlcNAc", "summary_of_the_method": "as §1"}, "[15]": {"target": "GalNAc3S(b1-4)GlcNAc3S", "summary_of_the_method": "as §1"}, "[16]": {"target": "GalNAc3S(b1-4)[Fuc(a1-3)]GlcNAc", "summary_of_the_method": "as §1"}, "[17]": {"target": "GalNAc4S6S(b1-4)GlcNAc", "summary_of_the_method": "as §1"}, "[18]": {"target": "GalNAc6S(b1-4)GlcNAc", "summary_of_the_method": "as §1"}, "[19]": {"target": "Glc(a1-4)Glc", "summary_of_the_method": "as §1"}, "[20]": {"target": "Glc(a1-4)Glc(a1-4)Glc(a1-4)Glc", "summary_of_the_method": "as §1"}, "[21]": {"target": "Glc(a1-6)Glc(a1-6)Glc", "summary_of_the_method": "as §1"}, "[22]": {"target": "Glc(a1-6)Glc(a1-6)Glc(a1-6)Glc", "summary_of_the_method": "as §1"}, "[23]": {"target": "Glc(b1-4)Glc", "summary_of_the_method": "as §1"}, "[24]": {"target": "Glc(b1-6)Glc", "summary_of_the_method": "as §1"}, "[25]": {"target": "GlcA(b1-3)Gal", "summary_of_the_method": "as §1"}, "[26]": {"target": "GlcA(b1-3)GlcNAc", "summary_of_the_method": "as §1"}, "[27]": {"target": "GlcA(b1-6)Gal", "summary_of_the_method": "as §1"}, "[28]": {"target": "GlcA3S(b1-3)Gal(b1-4)GlcNAc(b1-2)Man", "summary_of_the_method": "as §1"}, "[29]": {"target": "GlcA3S(b1-3)Gal(b1-4)GlcNAc(b1-3)Gal(b1-4)Glc", "summary_of_the_method": "as §1"}, "[30]": {"target": "GlcNAc(a1-3)Gal(b1-4)GlcNAc", "summary_of_the_method": "as §1"}, "[31]": {"target": "GlcNAc(a1-4)Gal(b1-3)GlcNAc", "summary_of_the_method": "as §1"}, "[32]": {"target": "GlcNAc(a1-4)Gal(b1-4)GalNAc", "summary_of_the_method": "as §1"}, "[33]": {"target": "GlcNAc(a1-4)Gal(b1-4)GlcNAc", "summary_of_the_method": "as §1"}, "[34]": {"target": "GlcNAc(a1-4)Gal(b1-4)GlcNAc(b1-3)Gal(b1-4)Glc", "summary_of_the_method": "as §1"}, "[35]": {"target": "GlcNAc(a1-4)Gal(b1-4)GlcNAc(b1-3)Gal(b1-4)GlcNAc", "summary_of_the_method": "as §1"}, "[36]": {"target": "GlcNAc(a1-4)Gal(b1-4)GlcNAc(b1-3)Gal(b1-4)GlcNAc(b1-3)Gal(b1-4)GlcNAc", "summary_of_the_method": "as §1"}, "[37]": {"target": "GlcNAc(a1-4)Gal(b1-4)GlcNAc(b1-3)Gal(b1-4)[Fuc(a1-3)]GlcNAc(b1-3)Gal(b1-4)[Fuc(a1-3)]GlcNAc", "summary_of_the_method": "as §1"}, "[38]": {"target": "GlcNAc(a1-6)Gal(b1-4)GlcNAc", "summary_of_the_method": "as §1"}},
  "note": "This is one part of the list.",
  "data": [
    {"binder": "B1", "values": [
      {"measurement": "glycan array binding signal (z-score)", "setting": "[1]", "result": -0.256},
      {"measurement": "glycan array binding signal (z-score)", "setting": "[2]", "result": 0.922},
      {"measurement": "glycan array binding signal (z-score)", "setting": "[3]", "result": -0.25},
      {"measurement": "glycan array binding signal (z-score)", "setting": "[4]", "result": -0.879},
      {"measurement": "glycan array binding signal (z-score)", "setting": "[5]", "result": -0.512},
      {"measurement": "glycan array binding signal (z-score)", "setting": "[6]", "result": -0.211},
      {"measurement": "glycan array binding signal (z-score)", "setting": "[7]", "result": 0.201},
      {"measurement": "glycan array binding signal (z-score)", "setting": "[8]", "result": 0.303},
      {"measurement": "glycan array binding signal (z-score)", "setting": "[9]", "result": -0.783},
      {"measurement": "glycan array binding signal (z-score)", "setting": "[10]", "result": 0.721},
      {"measurement": "glycan array binding signal (z-score)", "setting": "[11]", "result": 0.373},
      {"measurement": "glycan array binding signal (z-score)", "setting": "[12]", "result": 4.1},
      {"measurement": "glycan array binding signal (z-score)", "setting": "[13]", "result": 0.546},
      {"measurement": "glycan array binding signal (z-score)", "setting": "[14]", "result": -0.397},
      {"measurement": "glycan array binding signal (z-score)", "setting": "[15]", "result": -0.503},
      {"measurement": "glycan array binding signal (z-score)", "setting": "[16]", "result": -0.099},
      {"measurement": "glycan array binding signal (z-score)", "setting": "[17]", "result": -0.813},
      {"measurement": "glycan array binding signal (z-score)", "setting": "[18]", "result": -0.318},
      {"measurement": "glycan array binding signal (z-score)", "setting": "[19]", "result": 0.166},
      {"measurement": "glycan array binding signal (z-score)", "setting": "[20]", "result": 0.198},
      {"measurement": "glycan array binding signal (z-score)", "setting": "[21]", "result": -0.994},
      {"measurement": "glycan array binding signal (z-score)", "setting": "[22]", "result": 1.15},
      {"measurement": "glycan array binding signal (z-score)", "setting": "[23]", "result": -0.738},
      {"measurement": "glycan array binding signal (z-score)", "setting": "[24]", "result": 0.043},
      {"measurement": "glycan array binding signal (z-score)", "setting": "[25]", "result": 0.311},
      {"measurement": "glycan array binding signal (z-score)", "setting": "[26]", "result": -0.486},
      {"measurement": "glycan array binding signal (z-score)", "setting": "[27]", "result": -0.059},
      {"measurement": "glycan array binding signal (z-score)", "setting": "[28]", "result": 0.808},
      {"measurement": "glycan array binding signal (z-score)", "setting": "[29]", "result": 0.07},
      {"measurement": "glycan array binding signal (z-score)", "setting": "[30]", "result": -0.391},
      {"measurement": "glycan array binding signal (z-score)", "setting": "[31]", "result": 1.08},
      {"measurement": "glycan array binding signal (z-score)", "setting": "[32]", "result": 0.996},
      {"measurement": "glycan array binding signal (z-score)", "setting": "[33]", "result": -0.177},
      {"measurement": "glycan array binding signal (z-score)", "setting": "[34]", "result": -0.306},
      {"measurement": "glycan array binding signal (z-score)", "setting": "[35]", "result": 3.19},
      {"measurement": "glycan array binding signal (z-score)", "setting": "[36]", "result": -0.925},
      {"measurement": "glycan array binding signal (z-score)", "setting": "[37]", "result": -0.139},
      {"measurement": "glycan array binding signal (z-score)", "setting": "[38]", "result": -1.18}
    ]}
  ]
}
